Results are given in words; binding and its absence hold for the method and conditions named. Binding seen in cells or lysates may run through a third protein. A yes stands for co-enrichment or nearness to the bait. Other partners may have been found.
Target: Pbp1-myc (S. cerevisiae) (UniProt P53297)
Experiment: affinity purification with mass spectrometry; cells unstressed or glucose-depleted (10 min for Dcp1-myc, 60 min for Pbp1-myc), cross-linked with 0.8% formaldehyde; 20,000 g pellet of the lysate in Blob100 buffer (20 mM Tris-HCl pH 8, 100 mM NaCl, 1 mM MgCl2, 0.5% NP40) on anti-c-Myc magnetic beads, eluted with Myc peptide; label-free LC-MS/MS; hits are the proteins that cluster (Mfuzz) with the tagged bait across IP, pellet, supernatant, total and unbound fractions

Amino acid sequences for entries named in this document (tags omitted).
UniProt P53297: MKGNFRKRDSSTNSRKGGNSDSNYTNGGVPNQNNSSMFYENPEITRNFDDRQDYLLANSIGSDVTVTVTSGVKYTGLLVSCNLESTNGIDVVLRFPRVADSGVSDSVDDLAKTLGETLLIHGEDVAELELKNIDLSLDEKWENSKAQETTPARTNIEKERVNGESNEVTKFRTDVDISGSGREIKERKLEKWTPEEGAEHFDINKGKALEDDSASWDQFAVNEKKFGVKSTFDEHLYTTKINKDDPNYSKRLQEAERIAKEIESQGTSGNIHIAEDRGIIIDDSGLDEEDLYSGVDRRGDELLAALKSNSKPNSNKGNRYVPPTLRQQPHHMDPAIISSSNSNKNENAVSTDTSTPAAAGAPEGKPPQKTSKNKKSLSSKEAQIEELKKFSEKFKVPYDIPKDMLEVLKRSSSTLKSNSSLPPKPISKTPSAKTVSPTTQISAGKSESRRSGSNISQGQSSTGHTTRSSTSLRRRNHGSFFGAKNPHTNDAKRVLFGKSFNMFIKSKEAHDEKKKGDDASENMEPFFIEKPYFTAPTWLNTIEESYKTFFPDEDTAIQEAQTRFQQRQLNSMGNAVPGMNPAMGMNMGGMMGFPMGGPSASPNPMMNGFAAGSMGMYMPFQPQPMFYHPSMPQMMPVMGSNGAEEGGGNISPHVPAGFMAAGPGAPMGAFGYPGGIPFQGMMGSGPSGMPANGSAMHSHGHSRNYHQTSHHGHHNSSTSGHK

B1: Nat1 (protein, UniProt P12945 1-854)
chain: MSRKRSTKPKPAAKIALKKENDQFLEALKLYEGKQYKKSLKLLDAILKKDGSHVDSLALKGLDLYSVGEKDDAASYVANAIRKIEGASASPICCHVLGIYMRNTKEYKESIKWFTAALNNGSTNKQIYRDLATLQSQIGDFKNALVSRKKYWEAFLGYRANWTSLAVAQDVNGERQQAINTLSQFEKLAEGKISDSEKYEHSECLMYKNDIMYKAASDNQDKLQNVLKHLNDIEPCVFDKFGLLERKATIYMKLGQLKDASIVYRTLIKRNPDNFKYYKLLEVSLGIQGDNKLKKALYGKLEQFYPRCEPPKFIPLTFLQDKEELSKKLREYVLPQLERGVPATFSNVKPLYQRRKSKVSPLLEKIVLDYLSGLDPTQDPIPFIWTNYYLSQHFLFLKDFPKAQEYIDAALDHTPTLVEFYILKARILKHLGLMDTAAGILEEGRQLDLQDRFINCKTVKYFLRANNIDKAVEVASLFTKNDDSVNGIKDLHLVEASWFIVEQAEAYYRLYLDRKKKLDDLASLKKEVESDKSEQIANDIKENQWLVRKYKGLALKRFNAIPKFYKQFEDDQLDFHSYCMRKGTPRAYLEMLEWGKALYTKPMYVRAMKEASKLYFQMHDDRLKRKSDSLDENSDEIQNNGQNSSSQKKKAKKEAAAMNKRKETEAKSVAAYPSDQDNDVFGEKLIETSTPMEDFATEFYNNYSMQVREDERDYILDFEFNYRIGKLALCFASLNKFAKRFGTTSGLFGSMAIVLLHATRNDTPFDPILKKVVTKSLEKEYSENFPLNEISNNSFDWLNFYQEKFGKNDINGLLFLYRYRDDVPIGSSNLKEMIISSLSPLEPHSQNEILQYYL
Q: Which binding does the source give for B1 here?
A: binds

B2: Nce102 (protein, UniProt Q12207 1-173)
chain: MLALADNILRIINFLFLVISIGLISSLLNTQHRHSSRVNYCMFACAYGIFTDSLYGVFANFIEPLAWPLVLFTLDFLNFVFTFTAGTVLAVGIRAHSCNNSSYVDSNKITQGSGTRCRQAQAAVAFLYFSCAIFLAKTLMSVFNMISNGAFGSGSFSKRRRTGQVGVPTISQV
Q: B2 was tested. Which binding did it give?
A: binds

B3: Nop12 (protein, UniProt Q08208 1-459)
chain: MSSAIDNLFGNIDEKKIESSVDKLFSSSCGPINKLEVKSKTRTVLPDSKKRERAAEADQEEKEASKPDVSDEQTEEVALPKVKKAKKSKRNDEDEDLEARYYAKLLNEEAEAEDDKPTVTKTDETSVPLTSAAKKVDFKEDELEKAERTVFIGNILSTVITSKKVYKEFKKLFGTNPIAETEESGNEKEEESSKKSDNNEFAIESIRFRSISFDEALPRKVAFVQQKFHKSRDTINAYIVYKNKSAVRKICSNLNAVVFQDHHLRVDSVAHPAPHDKKRSIFVGNLDFEEIEESLWKHFEPCGDIEYVRIIRDSKTNMGKGFAYVQFKDLQSVNKALLLNEKPMKSQKQEDENTKKPTKKARKLRVSRCKNMKKGTTIGTGLDRNGLTDSQRTRAGRAKKILGKADRATLGQEITIEGLRAKKGEGSTHLKKKKQRSATGRVTKRSIAFKKAQAEKSKK
Q: With B3 as the binder, how does the binding read?
A: binds

B4: Nop4 (protein, UniProt P37838 1-685)
chain: MEETIENVEVPSSNVSKQNDDGLDMKTLFVRSIPQDVTDEQLADFFSNFAPIKHAVVVKDTNKRSRGFGFVSFAVEDDTKEALAKARKTKFNGHILRVDIAKRRDRSKKTSEVVEKSTPESSEKITGQNNEDEDDADGEDSMLKGKPKLIIRNMPWSCRDPVKLKKIFGRYGTVVEATIPRKRDGKLCGFAFVTMKKISNCRIALENTKDLKIDGRKVAVDFAVQKNRWEDYKKAQPEMNDKDDNESGNEDAEENHDDEEDENEEEDRQVDQASKNKESKRKAQNKREDFSVFVRNVPYDATEESLAPHFSKFGSVKYALPVIDKSTGLAKGTAFVAFKDQYTYNECIKNAPAAGSTSLLIGDDVMPEYVYEGRVLSITPTLVREDAGRMAEKNAAKRKEALGKAPGEKDRRNLYLLNEGRVVEGSKMADLLTNTDMEIREKSYKLRVEQLKKNPSLHLSMTRLAIRNLPRAMNDKALKALARKAVVEFATEVKNKERHPLSKEEIIRSTKEKYKFMGPDEIEAQKKKDKKSGVVKQAKVIMEVKGSTAGRSRGYGFVEFRDHKNALMGLRWLNCHAVTSDEILEGLNDDEKKQVDNDLGKGRRLCVEFAIENSNVVKRRREQLKQARTKRTRPDNEDTGDVGESENKKPKKEEATTPTNPDDKKMGDDIKRIIGFKRKRKHAKK
Q: Which binding does the source give for B4 here?
A: binds

B5: Phb1 (protein, UniProt P40961 1-287)
chain: MSNSAKLIDVITKVALPIGIIASGIQYSMYDVKGGSRGVIFDRINGVKQQVVGEGTHFLVPWLQKAIIYDVRTKPKSIATNTGTKDLQMVSLTLRVLHRPEVLQLPAIYQNLGLDYDERVLPSIGNEVLKSIVAQFDAAELITQREIISQKIRKELSTRANEFGIKLEDVSITHMTFGPEFTKAVEQKQIAQQDAERAKFLVEKAEQERQASVIRAEGEAESAEFISKALAKVGDGLLLIRRLEASKDIAQTLANSSNVVYLPSQHSGGGNSESSGSPNSLLLNIGR
Q: With B5 as the binder, how does the binding read?
A: binds

B6: Pil1 (protein, UniProt P53252 1-339)
chain: MHRTYSLRNSRAPTASQLQNPPPPPSTTKGRFFGKGGLAYSFRRSAAGAFGPELSRKLSQLVKIEKNVLRSMELTANERRDAAKQLSIWGLENDDDVSDITDKLGVLIYEVSELDDQFIDRYDQYRLTLKSIRDIEGSVQPSRDRKDKITDKIAYLKYKDPQSPKIEVLEQELVRAEAESLVAEAQLSNITRSKLRAAFNYQFDSIIEHSEKIALIAGYGKALLELLDDSPVTPGETRPAYDGYEASKQIIIDAESALNEWTLDSAQVKPTLSFKQDYEDFEPEEGEEEEEEDGQGRWSEDEQEDGQIEEPEQEEEGAVEEHEQVGHQQSESLPQQTTA
Q: With B6 as the binder, how does the binding read?
A: binds

B7: Pub1 (protein, UniProt P32588 1-453)
chain: MSENNEEQHQQQQQQQPVAVETPSAVEAPASADPSSEQSVAVEGNSEQAEDNQGENDPSVVPANAITGGRETSDRVLYVGNLDKAITEDILKQYFQVGGPIANIKIMIDKNNKNVNYAFVEYHQSHDANIALQTLNGKQIENNIVKINWAFQSQQSSSDDTFNLFVGDLNVNVDDETLRNAFKDFPSYLSGHVMWDMQTGSSRGYGFVSFTSQDDAQNAMDSMQGQDLNGRPLRINWAAKRDNNNNNNYQQRRNYGNNNRGGFRQYNSNNNNNMNMGMNMNMNMNMNNSRGMPPSSMGMPIGAMPLPSQGQPQQSQTIGLPPQVNPQAVDHIIRSAPPRVTTAYIGNIPHFATEADLIPLFQNFGFILDFKHYPEKGCCFIKYDTHEQAAVCIVALANFPFQGRNLRTGWGKERSNFMPQQQQQGGQPLIMNDQQQPVMSEQQQQQQQQQQQQ
Q: For B7, which binding is on record?
A: binds

B8: Puf4 (protein, UniProt P25339 1-888)
chain: MSTKGLKEEIDDVPSVDPVVSETVNSALEQLQLDDPEENATSNAFANKVSQDSQFANGPPSQMFPHPQMMGGMGFMPYSQMMQVPHNPCPFFPPPDFNDPTAPLSSSPLNAGGPPMLFKNDSLPFQMLSSGAAVATQGGQNLNPLINDNSMKVLPIASADPLWTHSNVPGSASVAIEETTATLQESLPSKGRESNNKASSFRRQTFHALSPTDLINAANNVTLSKDFQSDMQNFSKAKKPSVGANNTAKTRTQSISFDNTPSSTSFIPPTNSVSEKLSDFKIETSKEDLINKTAPAKKESPTTYGAAYPYGGPLLQPNPIMPGHPHNISSPIYGIRSPFPNSYEMGAQFQPFSPILNPTSHSLNANSPIPLTQSPIHLAPVLNPSSNSVAFSDMKNDGGKPTTDNDKAGPNVRMDLINPNLGPSMQPFHILPPQQNTPPPPWLYSTPPPFNAMVPPHLLAQNHMPLMNSANNKHHGRNNNSMSSHNDNDNIGNSNYNNKDTGRSNVGKMKNMKNSYHGYYNNNNNNNNNNNNNNNSNATNSNSAEKQRKIEESSRFADAVLDQYIGSIHSLCKDQHGCRFLQKQLDILGSKAADAIFEETKDYTVELMTDSFGNYLIQKLLEEVTTEQRIVLTKISSPHFVEISLNPHGTRALQKLIECIKTDEEAQIVVDSLRPYTVQLSKDLNGNHVIQKCLQRLKPENFQFIFDAISDSCIDIATHRHGCCVLQRCLDHGTTEQCDNLCDKLLALVDKLTLDPFGNYVVQYIITKEAEKNKYDYTHKIVHLLKPRAIELSIHKFGSNVIEKILKTAIVSEPMILEILNNGGETGIQSLLNDSYGNYVLQTALDISHKQNDYLYKRLSEIVAPLLVGPIRNTPHGKRIIGMLHLDS
Q: Which binding does the source give for B8 here?
A: binds

B9: Rbg1 (protein, UniProt P39729 1-369)
chain: MSTTVEKIKAIEDEMARTQKNKATSFHLGQLKAKLAKLRRELLTSASSGSGGGAGIGFDVARTGVASVGFVGFPSVGKSTLLSKLTGTESEAAEYEFTTLVTVPGVIRYKGAKIQMLDLPGIIDGAKDGRGRGKQVIAVARTCNLLFIILDVNKPLHHKQIIEKELEGVGIRLNKTPPDILIKKKEKGGISITNTVPLTHLGNDEIRAVMSEYRINSAEIAFRCDATVDDLIDVLEASSRRYMPAIYVLNKIDSLSIEELELLYRIPNAVPISSGQDWNLDELLQVMWDRLNLVRIYTKPKGQIPDFTDPVVLRSDRCSVKDFCNQIHKSLVDDFRNALVYGSSVKHQPQYVGLSHILEDEDVVTILKK
Q: B9 was tested. Which binding did it give?
A: binds

B10: Rie1 (protein, UniProt P53316 1-781)
chain: MNIAEEPSDEVISSGPEDTDICSQQTSASAEAGDQSIKIERKTSTGLQLEQLANTNLLTIRIKWQLQEEEDDHCNSRITDQIMDTIQHYKGISVNNSDTETYEFLPDTRRLQVLEQNKDIYLYEHGSQEYEKSYKDNEEEDDWRYDTVLQAQFKYPKSLENACTDISELLKSEPIGQHIDKWSIGVNKHALTYPGNIFVGGIAKSLSIGELSFLFSKYGPILSMKLIYDKTKGEPNGYGFISYPLGSQASLCIKELNGRTVNGSTLFINYHVERKERERIHWDHVKENNNDDNFRCLFIGNLPYHNPEKVETLITPKEVIEVIKKELSKKFPDFDIISYYFPKRSNTRSSSSVSFNEEGSVESNKSSNNTNGNAQDEDMLKGYGFIKLINHEQALAAIETFNGFMWHGNRLVVNKAVQHKVYNNHNSHDRHPSISNHNDMEVLEFANNPMYDYNNYTYDRYYFNNNKNGNSNDTSNVRYFDSVRSTPVAEKMDLFYPQRESFSEGRGQRVPRFMGNKFDMYQYPSTSYSLPIPMSNQQESNLYVKHIPLSWTDEDLYDFYKSFGEIISVKVITVGGSKNKYRQQSNDSSSDNDLPVGSSRGYGFVSFESPLDAAKAILNTDGYQVSKDQVLSVSFAQKRGNLSSSDDDDQSQTDNSSKFQNFQPHNDYHKAYPTKYNKKFINALMTQNQSQQQVSRENYFIPLQYPNTNTKPVNSYNLISANQNNANWMMPMFPSFGFIPQVPPVPYIIPPQNPAANHIPIMANGSNEEEEFSSGDYSMDY
Q: Which binding does the source give for B10 here?
A: binds

B11: Scd6 (protein, UniProt P45978 1-349)
chain: MSQYIGKTISLISVTDNRYVGLLEDIDSEKGTVTLKEVRCFGTEGRKNWGPEEIYPNPTVYNSVKFNGSEVKDLSILDANINDIQPVVPQMMPPASQFPPQQAQSPPQAQAQAHVQTNPQVPKPESNVPAAVAGYGVYTPTSTETATASMNDKSTPQDTNVNSQSRERGKNGENEPKYQRNKNRSSNRPPQSNRNFKVDIPNEDFDFQSNNAKFTKGDSTDVEKEKELESAVHKQDESDEQFYNKKSSFFDTISTSTETNTNMRWQEEKMLNVDTFGQASARPRFHSRGLGRGRGNYRGNRGNRGRGGQRGNYQNRNNYQNDSGAYQNQNDSYSRPANQFSQPPSNVEF
Q: For B11, which binding is on record?
A: binds
